Results are given in words; binding and its absence hold for the method and conditions named. Some results given as binding are weak or reduced against the parent protein; the word gives no strength.
How the values were obtained:
[1] = molecular target: 重组PSMA蛋白 expressed in HEK293 EBNA cells (pTT5-PSMA) (human) (UniProt Q04609); assay: Western blot of recombinant PSMA expressed in HEK293 cells
[2] = molecular target: 重组PSMA蛋白 expressed in E. coli (pDEST17-PSMA) (human) (UniProt Q04609); assay: Western blot of recombinant PSMA expressed in E. coli

Chains of the proteins cited; added tags and fusions are not shown. Residues count along the entry.
UniProt Q04609, residues 44-750: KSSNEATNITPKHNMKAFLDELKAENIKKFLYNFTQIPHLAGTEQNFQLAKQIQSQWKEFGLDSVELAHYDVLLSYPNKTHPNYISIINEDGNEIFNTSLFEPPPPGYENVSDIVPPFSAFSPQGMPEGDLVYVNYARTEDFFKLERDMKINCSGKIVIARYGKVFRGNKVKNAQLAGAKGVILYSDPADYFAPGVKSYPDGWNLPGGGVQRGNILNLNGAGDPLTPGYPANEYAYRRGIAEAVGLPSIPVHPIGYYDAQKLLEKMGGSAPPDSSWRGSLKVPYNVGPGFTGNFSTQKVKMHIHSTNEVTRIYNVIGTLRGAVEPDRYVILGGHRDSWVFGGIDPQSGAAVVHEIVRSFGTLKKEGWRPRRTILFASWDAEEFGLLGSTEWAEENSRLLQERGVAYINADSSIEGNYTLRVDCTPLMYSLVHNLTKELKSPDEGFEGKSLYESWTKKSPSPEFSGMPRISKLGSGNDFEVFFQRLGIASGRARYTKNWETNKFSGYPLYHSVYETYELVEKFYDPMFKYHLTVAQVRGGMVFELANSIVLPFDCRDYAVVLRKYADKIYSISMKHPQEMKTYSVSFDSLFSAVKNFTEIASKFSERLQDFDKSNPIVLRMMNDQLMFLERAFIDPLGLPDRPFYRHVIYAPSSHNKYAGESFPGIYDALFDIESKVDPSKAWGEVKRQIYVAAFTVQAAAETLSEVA

binding [1]: binds | binding [2]: binds
B1: 单克隆抗体mAb L-186 (antibody, V domains shown)
VH: QVQLKQSGPGLVQPSQSLSITCTVSGFSLTNYGLHWVRQSPGKGLEWLGVIWKGGDTDYNVPFMSRLSITRDNSKSQVFFKMNTLQADDTAIYFCALPFYGTPGFAYWGQGTLVTVSA
VL: DIVMTQSHKFMSTSVGDRVSITCKASQDVGTAVAWYQQKPGQSPRLLIYWASTRHTGVPDRFTGSGSGTDFTLTISNVQSEDLTDYFCQQYNSYPFTFGSGTELEIKR

Source: CN103333249A
